Assay results taken from PubChem BioAssay AID2685 (National Center for Advancing Translational Sciences (NCATS), 2010).
The list shows a part of the results. The main result of the screen is listed elsewhere. These columns were measured beside it and carry no call. Compounds called inactive in the main read-out are mostly missing here. Words in brackets tell the shape of the fitted curve; partial curves, single points and poor fits give uncertain potencies.

Experiment: qHTS Assay for Lipid Storage Modulators in Drosophila S3 Cells;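 for cell number change: cells counted by Cell Tracker Red CMTPX staining in the red channel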
Details: BODIPY lipid droplet fluorescence, 18-24 h; for cell number change: measured here: cell count max response, cells fed with added oleic acid
Summary of the method: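 Drosophila S3 cells loaded with oleic acid (400 uM, as added) and compounds at several concentrations; lipid droplets imaged by 488-nm laser-scanning cytometry, 500–530 nm intensity and object ratio to cell channel. Percent activity normalized to 20 uM Triacsin C.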

[1] = measured here: cell number channel AC50, cells fed with added oleic acid
[2] = measured here: lipid fluorescence (Fed channel) AC50, cells fed with added oleic acid

Structure (SMILES) | cell number change [%] | AC50 [1] | AC50 [2]
CCN(CC)S(=O)(=O)c1ccc(S(=O)(=O)Nc2c(C)nn(C)c2C)cc1 | -41 | 8200 nM [falling, full curve] | 6510 nM [falling, partial curve]
O=C(CN1C(=O)CCS(=O)(=O)c2ccccc21)Nc1ccc(F)cc1 | 25.6 | 130 nM [rising, full curve, poor fit] | –
Cc1nc2sc(C(c3ccco3)N3CCN(C(c4ccccc4)c4ccccc4)CC3)c(O)n2n1 (configuration not stated) | -155 | 2310 nM [rising, partial curve] | –
COc1ccc(Cc2nnc(SCC(=O)Nc3cc(Cl)ccc3OC)[nH]c2=O)cc1 | 72.1 | 14600 nM [rising, partial curve] | –
CCOC(=O)N1CCN(CC(=O)Nc2cc(OC)c(OC)cc2C#N)CC1 | -4.75 | 461 nM [rising, full curve, poor fit] | –
CC(NC(=O)C12CC3(C)CC(C)(CC(C)(C3)C1)C2)C(=O)O (configuration not stated) | -26.1 | 146 nM [rising, full curve] | 130 nM [rising, full curve, poor fit]
COc1cccc(NC(=O)CCC2CCN(C(=O)c3ccc(C(C)=O)s3)CC2)c1 | 1.42 | – | 10300 nM [rising, partial curve]
COc1ccc(NC(=O)CN(C)C(=O)c2ccc(N3CCCC3)c([N+](=O)[O-])c2)cc1 | 4.36 | – | –
CCCCNC(=O)C1CCN(S(=O)(=O)c2ccc3c(c2)CC(C)N3C(=O)C2CC2)CC1 (configuration not stated) | 19.2 | – | 6510 nM [falling, single point]
COc1ccc(/C=C/C(=O)N(C)c2ccccc2C(=O)O)cc1 | -90.9 | 32600 nM [falling, partial curve, poor fit] | 32600 nM [falling, partial curve]
CC(=O)c1c(C(C)=O)c(C)n(-c2ccc(C(=O)O)cc2)c1C | -48.8 | 3260 nM [falling, full curve] | 130 nM [falling, full curve]
CC(=O)Nc1ccc(S(=O)(=O)NCc2ccc(C)n2C)cc1 | -9.21 | – | 35500 nM [falling, single point]
CC12CC(O)C3c4ccc(O)cc4CCC3C1CCC2=O (configuration not stated) | -19 | 2060 nM [falling, partial curve, poor fit] | –
C=CCNC(=O)COC(=O)CCC(=O)c1cccs1 | -7.16 | – | 5.17 nM [falling, full curve]
Cc1ccc(N2CCN(/N=C/C(Cl)=C/c3ccccc3)CC2)cc1 | – | 4.61 nM [rising, full curve, poor fit] | –

For convenience, part of the list above:
Structure (SMILES) | cell number change [%] | AC50 [1] | AC50 [2]
O=C(CN1C(=O)CCS(=O)(=O)c2ccccc21)Nc1ccc(F)cc1 | 25.6 | 130 nM [rising, full curve, poor fit] | –
Cc1nc2sc(C(c3ccco3)N3CCN(C(c4ccccc4)c4ccccc4)CC3)c(O)n2n1 (configuration not stated) | -155 | 2310 nM [rising, partial curve] | –
